Laboratory results: paper doi:10.1101/2021.06.15.448428
Results are given in words; binding and its absence hold for the method and conditions named. Binding seen in cells or lysates may run through a third protein. Some entries that bind do so weakly or less than the wild type. For some assays here: Tags and fused reporters may be left off the sequences shown.

The chains behind the UniProt entries cited, without tags or fusion partners. Where a name states a change or a piece, a line headed by the entry shows the natural chain unless it says otherwise.
UniProt P25694, whole entry: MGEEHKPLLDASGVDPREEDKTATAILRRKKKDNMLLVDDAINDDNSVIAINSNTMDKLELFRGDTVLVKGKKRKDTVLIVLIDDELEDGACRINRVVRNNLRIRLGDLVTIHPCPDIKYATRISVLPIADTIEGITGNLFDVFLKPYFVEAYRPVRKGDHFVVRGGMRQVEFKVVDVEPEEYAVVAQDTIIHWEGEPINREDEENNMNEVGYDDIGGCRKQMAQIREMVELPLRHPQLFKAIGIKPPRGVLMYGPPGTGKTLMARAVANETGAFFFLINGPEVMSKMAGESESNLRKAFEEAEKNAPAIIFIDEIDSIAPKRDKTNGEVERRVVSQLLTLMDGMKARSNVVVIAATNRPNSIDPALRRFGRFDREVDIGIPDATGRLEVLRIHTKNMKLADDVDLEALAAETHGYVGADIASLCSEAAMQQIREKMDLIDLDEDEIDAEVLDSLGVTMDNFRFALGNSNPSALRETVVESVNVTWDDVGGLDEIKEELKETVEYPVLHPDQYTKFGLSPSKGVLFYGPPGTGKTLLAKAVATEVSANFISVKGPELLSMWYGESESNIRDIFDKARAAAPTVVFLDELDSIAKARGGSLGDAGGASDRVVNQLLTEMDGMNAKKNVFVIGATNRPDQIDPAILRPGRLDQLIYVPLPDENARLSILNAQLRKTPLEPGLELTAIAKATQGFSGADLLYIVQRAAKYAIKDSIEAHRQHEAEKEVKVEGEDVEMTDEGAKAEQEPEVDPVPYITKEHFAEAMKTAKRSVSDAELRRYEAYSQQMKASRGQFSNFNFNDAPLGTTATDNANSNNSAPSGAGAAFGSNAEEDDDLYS

Experiments:
[1] = molecular target: T1, Dfm1 K67E (S. cerevisiae) (UniProt Q12743); experiment: co-sedimentation
T1 sequence: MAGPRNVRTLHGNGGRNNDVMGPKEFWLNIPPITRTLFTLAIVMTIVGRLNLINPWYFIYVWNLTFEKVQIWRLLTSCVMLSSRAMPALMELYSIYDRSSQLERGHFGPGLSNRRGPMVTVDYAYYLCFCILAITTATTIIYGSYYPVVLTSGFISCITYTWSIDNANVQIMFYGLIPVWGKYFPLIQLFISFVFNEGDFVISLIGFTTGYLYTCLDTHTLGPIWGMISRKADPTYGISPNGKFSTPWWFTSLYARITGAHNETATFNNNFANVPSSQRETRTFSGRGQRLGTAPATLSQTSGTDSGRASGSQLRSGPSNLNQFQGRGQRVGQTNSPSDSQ

[2] = molecular target: T2, Dfm1 F58S (S. cerevisiae) (UniProt Q12743); experiment: co-sedimentation
T2 sequence: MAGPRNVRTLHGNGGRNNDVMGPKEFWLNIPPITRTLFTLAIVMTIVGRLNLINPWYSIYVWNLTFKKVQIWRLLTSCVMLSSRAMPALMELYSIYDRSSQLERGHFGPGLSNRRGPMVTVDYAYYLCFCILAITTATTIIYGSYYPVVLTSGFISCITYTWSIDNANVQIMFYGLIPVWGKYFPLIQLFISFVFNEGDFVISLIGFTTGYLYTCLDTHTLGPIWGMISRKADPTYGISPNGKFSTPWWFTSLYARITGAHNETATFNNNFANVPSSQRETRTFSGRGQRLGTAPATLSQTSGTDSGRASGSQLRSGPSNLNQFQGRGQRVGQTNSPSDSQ

[3] = molecular target: T3, Dfm1 Q101R (S. cerevisiae) (UniProt Q12743); experiment: co-sedimentation
T3 sequence: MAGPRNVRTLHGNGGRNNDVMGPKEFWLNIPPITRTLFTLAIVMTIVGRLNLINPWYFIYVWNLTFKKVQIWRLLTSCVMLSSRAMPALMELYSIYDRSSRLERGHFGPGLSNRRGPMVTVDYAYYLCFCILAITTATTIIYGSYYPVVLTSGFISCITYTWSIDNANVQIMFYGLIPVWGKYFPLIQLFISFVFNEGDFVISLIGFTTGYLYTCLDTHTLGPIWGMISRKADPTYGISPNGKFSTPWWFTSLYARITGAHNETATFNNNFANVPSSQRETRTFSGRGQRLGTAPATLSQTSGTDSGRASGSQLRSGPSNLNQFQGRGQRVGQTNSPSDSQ

[4] = molecular target: T4, Dfm1 L64V (S. cerevisiae) (UniProt Q12743); experiment: co-sedimentation
T4 sequence: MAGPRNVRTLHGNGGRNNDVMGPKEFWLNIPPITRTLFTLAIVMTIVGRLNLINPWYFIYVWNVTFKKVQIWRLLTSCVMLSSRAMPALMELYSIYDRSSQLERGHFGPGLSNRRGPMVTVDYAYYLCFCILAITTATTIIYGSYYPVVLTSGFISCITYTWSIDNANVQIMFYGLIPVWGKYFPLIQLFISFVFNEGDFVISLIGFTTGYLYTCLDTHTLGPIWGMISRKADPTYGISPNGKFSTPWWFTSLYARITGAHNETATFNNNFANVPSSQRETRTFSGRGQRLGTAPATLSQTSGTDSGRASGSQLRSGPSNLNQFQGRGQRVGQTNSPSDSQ

[5] = molecular target: T5, Dfm1 F107S (S. cerevisiae) (UniProt Q12743); experiment: co-sedimentation
T5 sequence: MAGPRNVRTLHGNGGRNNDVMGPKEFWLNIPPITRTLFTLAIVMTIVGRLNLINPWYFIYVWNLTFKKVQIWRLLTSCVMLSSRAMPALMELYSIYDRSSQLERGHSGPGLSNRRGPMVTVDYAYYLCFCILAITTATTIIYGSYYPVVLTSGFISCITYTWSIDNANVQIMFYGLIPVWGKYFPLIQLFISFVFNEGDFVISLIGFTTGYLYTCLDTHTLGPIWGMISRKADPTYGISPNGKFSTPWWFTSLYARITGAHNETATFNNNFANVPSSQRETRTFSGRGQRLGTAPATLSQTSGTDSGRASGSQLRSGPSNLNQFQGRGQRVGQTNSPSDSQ

[6] = molecular target: T1, Dfm1 K67E (S. cerevisiae); experiment: co-IP
[7] = molecular target: T2, Dfm1 F58S (S. cerevisiae); experiment: co-IP
[8] = molecular target: T6, Dfm1-HA (S. cerevisiae) (UniProt Q12743); experiment: co-IP
T6 sequence: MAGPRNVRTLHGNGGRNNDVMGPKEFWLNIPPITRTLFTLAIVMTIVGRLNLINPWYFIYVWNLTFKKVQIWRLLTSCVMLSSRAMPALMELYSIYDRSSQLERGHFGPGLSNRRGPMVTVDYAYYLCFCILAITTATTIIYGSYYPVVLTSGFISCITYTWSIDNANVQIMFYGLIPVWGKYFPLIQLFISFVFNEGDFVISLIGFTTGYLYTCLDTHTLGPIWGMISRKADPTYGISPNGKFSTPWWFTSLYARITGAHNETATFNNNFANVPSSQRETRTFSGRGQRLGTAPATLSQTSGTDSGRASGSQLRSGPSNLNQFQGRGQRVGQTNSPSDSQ

[9] = molecular target: T3, Dfm1 Q101R (S. cerevisiae); experiment: co-IP
[10] = molecular target: T4, Dfm1 L64V (S. cerevisiae); experiment: co-IP
[11] = molecular target: T5, Dfm1 F107S (S. cerevisiae); experiment: co-IP

Measured: binding

Cdc48 (from UniProt P25694 1-835)
binds: [1] | [2] | [3] | [4] | [5]

B1: Hrd3 (protein, UniProt Q05787 21-833)
chain: DSIADPWPEARHLLNTIAKSRDPMKEAAMEPNADEFVGFYVPMDYSPRNEEKNYQSIWQNEITDSQRHIYELLVQSSEQFNNSEATYTLSQIHLWSQYNFPHNMTLAHKYLEKFNDLTHFTNHSAIFDLAVMYATGGCASGNDQTVIPQDSAKALLYYQRAAQLGNLKAKQVLAYKYYSGFNVPRNFHKSLVLYRDIAEQLRKSYSRDEWDIVFPYWESYNVRISDFESGLLGKGLNSVPSSTVRKRTTRPDIGSPFIAQVNGVQMTLQIEPMGRFAFNGNDGNINGDEDDEDASERRIIRIYYAALNDYKGTYSQSRNCERAKNLLELTYKEFQPHVDNLDPLQVFYYVRCLQLLGHMYFTGEGSSKPNIHMAEEILTTSLEISRRAQGPIGRACIDLGLINQYITNNISQAISYYMKAMKTQANNGIVEFQLSKLATSFPEEKIGDPFNLMETAYLNGFIPAIYEFAVMIESGMNSKSSVENTAYLFKTFVDKNEAIMAPKLRTAFAALINDRSEVALWAYSQLAEQGYETAQVSAAYLMYQLPYEFEDPPRTTDQRKTLAISYYTRAFKQGNIDAGVVAGDIYFQMQNYSKAMALYQGAALKYSIQAIWNLGYMHEHGLGVNRDFHLAKRYYDQVSEHDHRFYLASKLSVLKLHLKSWLTWITREKVNYWKPSSPLNPNEDTQHSKTSWYKQLTKILQRMRHKEDSDKAAEDSHKHRTVVQNGANHRGDDQEEASEILGFQMEDLVTMGCILGIFLLSILMSTLAARRGWNVRFNGAQLNANGNRQQEQQQQQQAQGPPGWDFNVQIFAI
binds: [6] | [7] | [8] | [9] | [10] | [11]

B2: Hrd1 (protein, UniProt Q08109 1-551)
chain: MVPENRRKQLAIFVVVTYLLTFYCVYSATKTSVSFLQVTLKLNEGFNLMVLSIFILLNSTLLWQLLTKLLFGELRLIEHEHIFERLPFTIINTLFMSSLFHERYFFTVAFFGLLLLYLKVFHWILKDRLEALLQSINDSTTMKTLIFSRFSFNLVLLAVVDYQIITRCISSIYTNQKSDIESTSLYLIQVMEFTMLLIDLLNLFLQTCLNFWEFYRSQQSLSNENNHIVHGDPTDENTVESDQSQPVLNDDDDDDDDDRQFTGLEGKFMYEKAIDVFTRFLKTALHLSMLIPFRMPMMLLKDVVWDILALYQSGTSLWKIWRNNKQLDDTLVTVTVEQLQNSANDDNICIICMDELIHSPNQQTWKNKNKKPKRLPCGHILHLSCLKNWMERSQTCPICRLPVFDEKGNVVQTTFTSNSDITTQTTVTDSTGIATDQQGFANEVDLLPTRTTSPDIRIVPTQNIDTLAMRTRSTSTPSPTWYTFPLHKTGDNSVGSSRSAYEFLITNSDEKENGIPVKLTIENHEVNSLHGDGGEQIAKKIVIPDKFIQHI
binds: [6] | [7] | [8] | [9] | [10] | [11]
